# Data as given in PubChem BioAssay AID1259405 (NCATS, 2018)
# Purpose: 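Silenced genes that increase secreted GFP made by CHO cells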 (primary screen)
# System: Chinese hamster CHO-K1 ovary cells with stable secreted eGFP expression
# Reagent: single siRNA against mouse genes, 0.8 pmol siRNA per well (2 µl of 400 nM stock)
# Duration: 3 days
# Read-out: 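Percent of the per-plate non-targeting control median for intracellular GFP per well by laser scanning cytometry and for cell viability by ATP luminescence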
# Reading the numbers: GFP, % of control: higher = more GFP per well, higher productivity; viability (ATP), % of control: higher = more viable cells (more ATP)
# Rule for the call: 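Called active when intracellular GFP, relative to negative control, is at or above 120%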
# The whole screen tested about 50,000 reagents; shown is an unselected part. Over the whole deposit, about 4,000 (8%) got an active call. 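Mouse siRNA library applied to hamster cells; one well for each siRNA.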 Entries without a mark were called inactive. The numbers tell different reagents against one gene apart.
gene,reagent no.,"GFP, % of control","viability (ATP), % of control"
Rabep1,1,102,86.6
Rabep1,2,20.2,33.9
Rabep1,3,78.3,73.9
Adck5,1,74.2,82.5
Adck5,2,74.8,72
Adck5,3,103,142
Lce1b,1,105,53.9
Lce1b,2,69.9,71
Lce1b,3,116,99.5
Or51f1,1,89.2,78.9
Or51f1,2,86.8,85.8
Or51f1,3,63.7,103
Hmgcl,1,73.1,78.4
Hmgcl,2,50.9,66.6
Hmgcl,3,180 (active),80.6
Kat14,1,80.7,93
Kat14,2,114,87.5
Cdk17,1,50.6,62.4
Gart,1,55.7,76
Gart,2,42.9,55.5
Gart,3,64.2,128
Inhca,1,126 (active),98.8
Inhca,2,118,84.9
Inhca,3,64.1,59.6
Bnip3,1,69,59.4
Bnip3,2,72.1,64.9
Bnip3,3,97.8,92.8
Mkln1,1,46.5,39
Mkln1,2,77,80.8
Mkln1,3,57.7,48.3
Ca4,1,92.7,105
Ca4,2,68.2,71
Ephb4,1,85,80.4
Fbxl21,1,64.4,65.2
Fbxl21,2,98,82.3
Fbxl21,3,106,75.2
Or10j27,1,78.8,73.8
Or10j27,2,86.6,85.9
Or10j27,3,121 (active),46.9
Sipa1,1,34.9,18.1
Sipa1,2,82.5,72.5
Sipa1,3,23.8,38.8
Akr1c20,1,148 (active),107
Akr1c20,2,125 (active),133
Akr1c20,3,93.7,83.5
Xkr9,1,89.2,87.7
Xkr9,2,100,80
Xkr9,3,40.6,33.4
Sncaip,1,81.4,83.4
Sncaip,2,68.7,81.6
Sncaip,3,47.7,42.3
Faim2,1,67.7,57.1
Faim2,2,54.3,60.3
Faim2,3,94.2,63
Mppe1,1,75.8,97
Mppe1,2,86.9,85.6
Mppe1,3,66.5,74.3
Ralgapa1,1,75.9,51.6
Ralgapa1,2,112,85.9
Ralgapa1,3,32.9,34.9
St6galnac5,1,110,112
St6galnac5,2,82.6,87.8
St6galnac5,3,0.00935,81.7
Wfdc21,1,45.1,50.2
Wfdc21,2,180 (active),116
Wfdc21,3,156 (active),72.6
Wfdc21,4,45.1,50.2
Wfdc21,5,109,87
Wfdc21,6,114,59.6
Or5d35,1,85,41
Or5d35,2,57.9,80.9
Or5d35,3,110,61.4
Skil,1,80.7,78.1
Skil,2,92.1,90.3
Skil,3,86.5,118
Gmnn,1,72.8,75.7
Gmnn,2,53.4,75.3
Gmnn,3,124 (active),86.1
Tfdp2,1,80,94
Tfdp2,2,102,105
Tfdp2,3,96.6,95.8
Or2k2,1,70.7,18.8
Or2k2,2,92.7,64.1
Or2k2,3,114,71.8

Entries listed above with an active call, once more:
gene,reagent no.,"GFP, % of control","viability (ATP), % of control"
Hmgcl,3,180 (active),80.6
Inhca,1,126 (active),98.8
Or10j27,3,121 (active),46.9
Akr1c20,1,148 (active),107
Akr1c20,2,125 (active),133
Wfdc21,2,180 (active),116
Wfdc21,3,156 (active),72.6
Gmnn,3,124 (active),86.1
